The values below come from patent US6372278B1, “Sweetener composition” (Ajinomoto Co., Inc., priority 1998, dated 2002).

Peptide text beside a SMILES is read from it.

A short description of the data set: Quality of sweetness compared with sucrose. An excerpt:
It is reported that the sweetness strength or sweetening potency of the synthetic high-potency sweetener, NM, is about 10,000 times that of sucrose in terms of weight ratio (Japanese Patent Kohyou Publication JP-A-8-503206). […] Further, NM has a strong astringent taste. Accordingly, the balance of the quality of sweetness properties for NM is poor when compared to sucrose. Sucrose is generally regarded as the standard for evaluating the properties or characteristics of the quality of sweetness.
It is also reported that the sweetness strength of the amino acid type synthetic sweetener, APM, is about 200 times that of sucrose in weight ratio (See Japanese Patent Kokoku Publication JP-B-47-3 1031). APM has a sweetness quality characterized by a weak early taste and a strong later taste as compared with sucrose.

As for `COC(=O)[C@H](Cc1ccccc1)NC(=O)[C@H](CC(=O)O)NCCC(C)(C)C` [NM], the early taste entry was “extremely weak” and the later taste entry is reported as “extremely strong”.

In the case of `COC(=O)[C@H](Cc1ccccc1)NC(=O)[C@@H](N)CC(=O)O` [APM, Aspartame] (H-Asp-Phe-OMe), the early taste entry is on record as “weak” and the later taste entry is reported as “strong”.
